We go through three molecules from publication PMC11476584.

Amino acid sequences for entries named in this document (tags omitted). Residues count along the entry.
UniProt Q14643: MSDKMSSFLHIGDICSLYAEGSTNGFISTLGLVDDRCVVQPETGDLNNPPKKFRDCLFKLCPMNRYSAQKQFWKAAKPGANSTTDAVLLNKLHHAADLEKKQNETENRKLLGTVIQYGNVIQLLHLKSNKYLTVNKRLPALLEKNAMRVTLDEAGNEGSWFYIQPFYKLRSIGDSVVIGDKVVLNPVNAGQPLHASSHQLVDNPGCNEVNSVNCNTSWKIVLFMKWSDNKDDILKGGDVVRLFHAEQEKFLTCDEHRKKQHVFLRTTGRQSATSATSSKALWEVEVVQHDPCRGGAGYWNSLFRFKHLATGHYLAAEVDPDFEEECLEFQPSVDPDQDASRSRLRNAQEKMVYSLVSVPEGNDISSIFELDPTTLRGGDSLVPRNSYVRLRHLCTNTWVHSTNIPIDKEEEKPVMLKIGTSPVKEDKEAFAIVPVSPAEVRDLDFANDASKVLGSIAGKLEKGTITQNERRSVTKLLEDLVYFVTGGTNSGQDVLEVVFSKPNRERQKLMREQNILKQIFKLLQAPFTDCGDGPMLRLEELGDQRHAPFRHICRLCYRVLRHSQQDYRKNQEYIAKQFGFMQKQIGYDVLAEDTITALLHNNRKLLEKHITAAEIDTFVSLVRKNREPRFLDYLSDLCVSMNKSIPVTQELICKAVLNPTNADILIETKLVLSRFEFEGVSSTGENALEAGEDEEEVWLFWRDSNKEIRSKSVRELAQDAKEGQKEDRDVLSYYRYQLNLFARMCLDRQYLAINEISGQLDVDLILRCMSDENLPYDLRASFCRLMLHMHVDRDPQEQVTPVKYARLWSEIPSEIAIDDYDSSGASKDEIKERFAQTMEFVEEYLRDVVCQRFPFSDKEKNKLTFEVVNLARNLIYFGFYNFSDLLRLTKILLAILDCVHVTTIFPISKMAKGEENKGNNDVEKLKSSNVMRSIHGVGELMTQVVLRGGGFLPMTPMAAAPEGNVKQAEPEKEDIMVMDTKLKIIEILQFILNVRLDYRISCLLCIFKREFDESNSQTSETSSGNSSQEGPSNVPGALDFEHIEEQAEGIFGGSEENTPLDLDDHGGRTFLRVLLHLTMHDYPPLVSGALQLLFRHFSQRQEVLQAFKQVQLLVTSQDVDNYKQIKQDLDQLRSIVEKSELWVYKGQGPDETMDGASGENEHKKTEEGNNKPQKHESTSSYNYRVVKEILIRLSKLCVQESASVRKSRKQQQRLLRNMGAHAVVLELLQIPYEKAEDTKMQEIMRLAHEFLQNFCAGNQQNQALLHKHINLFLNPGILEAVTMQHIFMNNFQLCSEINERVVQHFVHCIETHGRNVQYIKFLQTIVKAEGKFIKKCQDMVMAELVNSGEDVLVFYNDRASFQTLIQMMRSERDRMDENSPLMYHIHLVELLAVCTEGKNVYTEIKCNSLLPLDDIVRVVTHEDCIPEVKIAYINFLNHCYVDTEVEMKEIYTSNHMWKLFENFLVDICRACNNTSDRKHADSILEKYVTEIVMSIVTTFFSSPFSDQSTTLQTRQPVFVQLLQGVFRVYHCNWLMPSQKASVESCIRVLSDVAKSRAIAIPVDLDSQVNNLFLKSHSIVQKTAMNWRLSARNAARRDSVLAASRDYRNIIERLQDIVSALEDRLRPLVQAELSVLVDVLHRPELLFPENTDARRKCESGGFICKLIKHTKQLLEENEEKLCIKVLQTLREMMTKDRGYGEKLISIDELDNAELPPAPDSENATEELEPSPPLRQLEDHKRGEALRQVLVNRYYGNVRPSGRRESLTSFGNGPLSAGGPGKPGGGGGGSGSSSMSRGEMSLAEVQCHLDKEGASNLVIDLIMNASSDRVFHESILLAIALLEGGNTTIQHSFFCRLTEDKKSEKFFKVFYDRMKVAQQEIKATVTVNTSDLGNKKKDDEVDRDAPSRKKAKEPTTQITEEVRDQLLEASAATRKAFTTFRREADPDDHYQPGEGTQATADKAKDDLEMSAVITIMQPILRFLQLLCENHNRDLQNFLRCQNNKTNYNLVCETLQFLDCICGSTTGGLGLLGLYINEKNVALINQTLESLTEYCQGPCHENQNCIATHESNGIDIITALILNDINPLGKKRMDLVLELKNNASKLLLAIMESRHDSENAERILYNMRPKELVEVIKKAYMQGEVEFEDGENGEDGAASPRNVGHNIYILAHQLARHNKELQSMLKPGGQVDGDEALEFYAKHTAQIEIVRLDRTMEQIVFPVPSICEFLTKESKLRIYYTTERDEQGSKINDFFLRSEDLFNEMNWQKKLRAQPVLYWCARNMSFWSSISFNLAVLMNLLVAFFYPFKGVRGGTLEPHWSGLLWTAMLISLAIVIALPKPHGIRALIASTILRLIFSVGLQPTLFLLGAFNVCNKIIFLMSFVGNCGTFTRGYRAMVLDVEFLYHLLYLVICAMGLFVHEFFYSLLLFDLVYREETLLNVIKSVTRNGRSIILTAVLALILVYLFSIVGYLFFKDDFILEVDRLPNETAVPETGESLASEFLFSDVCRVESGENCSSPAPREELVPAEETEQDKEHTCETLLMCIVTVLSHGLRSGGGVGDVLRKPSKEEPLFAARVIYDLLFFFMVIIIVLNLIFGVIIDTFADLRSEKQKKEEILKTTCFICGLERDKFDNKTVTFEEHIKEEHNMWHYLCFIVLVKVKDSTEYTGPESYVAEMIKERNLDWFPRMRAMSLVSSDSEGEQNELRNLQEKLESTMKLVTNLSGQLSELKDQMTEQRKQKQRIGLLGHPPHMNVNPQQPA
UniProt P02649, residues 19-317: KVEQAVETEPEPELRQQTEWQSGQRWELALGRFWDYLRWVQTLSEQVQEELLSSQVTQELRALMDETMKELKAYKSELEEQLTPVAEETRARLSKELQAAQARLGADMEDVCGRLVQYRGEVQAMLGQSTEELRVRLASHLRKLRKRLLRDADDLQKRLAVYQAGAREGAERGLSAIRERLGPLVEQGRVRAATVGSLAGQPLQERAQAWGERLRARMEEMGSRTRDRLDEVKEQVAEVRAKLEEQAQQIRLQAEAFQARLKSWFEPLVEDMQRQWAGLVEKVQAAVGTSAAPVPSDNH
UniProt P21796: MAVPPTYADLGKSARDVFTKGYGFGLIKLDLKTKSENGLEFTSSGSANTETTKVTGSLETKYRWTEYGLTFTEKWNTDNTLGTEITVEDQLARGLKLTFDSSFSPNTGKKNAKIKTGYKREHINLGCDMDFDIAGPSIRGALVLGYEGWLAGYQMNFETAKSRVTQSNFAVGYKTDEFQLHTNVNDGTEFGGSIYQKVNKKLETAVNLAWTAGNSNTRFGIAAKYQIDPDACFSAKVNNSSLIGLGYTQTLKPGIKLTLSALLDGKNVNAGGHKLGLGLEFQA

These are yes or no findings as the source states them, for the method shown. In cells and extracts the contact can be indirect. Some binding calls cover weakened binding; strength is not graded here.

The target in assay [1] is inositol 1,4,5-trisphosphate receptor type 1 (IP3R1) (human (endogenous in Huh7)) (UniProt Q14643). The assay is described as follows: proximity ligation; in situ Duolink PLA in fixed, permeabilised Huh7 cells (mock-, APOE3- or APOE4-transfected) with mouse anti-IP3R1 and rabbit anti-VDAC1 antibodies; 1 or 5 g/L glucose for six hours.
Assay [2] deals with Apolipoprotein E3 (APOE3), overexpressed in transfected Huh7 cells (human) (UniProt P02649). The assay is described as follows: co-IP; APOE precipitated with anti-APOE antibody (sc-13521) and Protein G Sepharose, overnight at 4 °C, from lysates of APOE3- and APOE4-transfected Huh7 cells; Western blot, target bands normalised to the APOE signal.
Assay [3] addresses Apolipoprotein E (APOE), endogenous in unmodified Huh7 cells (human (endogenous in Huh7)) (UniProt P02649). The assay is described as follows: co-IP; APOE precipitated with anti-APOE antibody (sc-13521) and Protein G Sepharose, overnight at 4 °C, from lysates of unmodified Huh7 cells; untreated or thapsigargin (50 µM, 24 h); low glucose (1 g/L) or glucose challenge (5 g/L, 6 h); Western blot, target bands normalised to the APOE band. A general note: A western blot detects proteins with antibodies after separation by electrophoresis.

Turning to “Voltage-dependent anion-selective channel 1 (VDAC1) (from UniProt P21796 1-283)”, the binding entry in assay [1], in assay [2] and in assay [3] was “binds” throughout.

B1: Lon protease (LONP1) (enzyme, UniProt P36776 68-959)
chain: FWEASSRGGGAFSGGEDASEGGAEEGAGGAGGSAGAGEGPVITALTPMTIPDVFPHLPLIAITRNPVFPRFIKIIEVKNKKLVELLRRKVRLAQPYVGVFLKRDDSNESDVVESLDEIYHTGTFAQIHEMQDLGDKLRMIVMGHRRVHISRQLEVEPEEPEAENKHKPRRKSKRGKKEAEDELSARHPAELAMEPTPELPAEVLMVEVENVVHEDFQVTEEVKALTAEIVKTIRDIIALNPLYRESVLQMMQAGQRVVDNPIYLSDMGAALTGAESHELQDVLEETNIPKRLYKALSLLKKEFELSKLQQRLGREVEEKIKQTHRKYLLQEQLKIIKKELGLEKDDKDAIEEKFRERLKELVVPKHVMDVVDEELSKLGLLDNHSSEFNVTRNYLDWLTSIPWGKYSNENLDLARAQAVLEEDHYGMEDVKKRILEFIAVSQLRGSTQGKILCFYGPPGVGKTSIARSIARALNREYFRFSVGGMTDVAEIKGHRRTYVGAMPGKIIQCLKKTKTENPLILIDEVDKIGRGYQGDPSSALLELLDPEQNANFLDHYLDVPVDLSKVLFICTANVTDTIPEPLRDRMEMINVSGYVAQEKLAIAERYLVPQARALCGLDESKAKLSSDVLTLLIKQYCRESGVRNLQKQVEKVLRKSAYKIVSGEAESVEVTPENLQDFVGKPVFTVERMYDVTPPGVVMGLAWTAMGGSTLFVETSLRRPQDKDAKGDKDGSLEVTGQLGEVMKESARIAYTFARAFLMQHAPANDYLVTSHIHLHVPEGATPKDGPSAGCTIVTALLSLAMGRPVRQNLAMTGEVSLTGKILPVGGIKEKTIAAKRAGVTCIVLPAENKKDFYDLAAFITEGLEVHFVEHYREIFDIAFPDEQAEALAVER
Take B1: the binding entry in assay [2] and in assay [3] was “binds” in each case.

B2: Mitochondrial import receptor subunit TOM40 (TOMM40) (protein, UniProt O96008 1-361)
chain: MGNVLAASSPPAGPPPPPAPALVGLPPPPPSPPGFTLPPLGGSLGAGTSTSRSSERTPGAATASASGAAEDGACGCLPNPGTFEECHRKCKELFPIQMEGVKLTVNKGLSNHFQVNHTVALSTIGESNYHFGVTYVGTKQLSPTEAFPVLVGDMDNSGSLNAQVIHQLGPGLRSKMAIQTQQSKFVNWQVDGEYRGSDFTAAVTLGNPDVLVGSGILVAHYLQSITPCLALGGELVYHRRPGEEGTVMSLAGKYTLNNWLATVTLGQAGMHATYYHKASDQLQVGVEFEASTRMQDTSVSFGYQLDLPKANLLFKGSVDSNWIVGATLEKKLPPLPLTLALGAFLNHRKNKFQCGFGLTIG
For the molecule B2, the binding result in assay [2] and in assay [3] was “binds” throughout.
